Some of the results follow.
System: T1, CTL2-GFP (C. trachomatis L2/434/Bu, GFP-expressing)
T1 construct: L2/434/Bu, GFP-expressing
Design: species or system HeLa; Intracellular C. trachomatis growth in HeLa cells, bulk GFP fluorescence relative to DMSO
Details: bulk GFP, single well; 28.5 h, 10 µM; inhibitor

Compared with `O=S(=O)(Nc1ccc(C(O)(C(F)(F)F)C(F)(F)F)cc1)c1ccc(Cl)c(Cl)c1` [CBK062102], `O=C(O)c1cccc(NS(=O)(=O)c2ccc(-c3cnco3)cc2)c1` [CBK155726] is lower in “% of control remaining” value: 125.789% for the first, 84.2162% for the second.

Going from `COC(=O)c1ccccc1OCCc1csc(NS(=O)(=O)c2cccc(Cl)c2C)n1` [CBK023735] to `CCN(CC)C(=O)c1ccccc1NS(=O)(=O)c1ccc(OC)c(OC)c1` [CBK045423], the “% of control remaining” value falls from 99.8081% to 56.991%.

Going from `COc1cccc(CC(=O)N2CCCC2c2nc3ccccc3[nH]2)c1` (stereo not shown) [CBK283665] to `Cc1[nH]c2c(C(=O)O)cccc2c1-c1ccccc1` [CBK012486], the “% of control remaining” value rises from 116.075% to 142.274%.

Compared with `CC1(C)[C@H](Cc2cc(CC3CCCCC3)on2)C[C@@H]1NC(=O)C1CCCC1` [CBK289256], `COC(=O)c1cn([C@H]2CO[C@H]3[C@@H]2OC[C@@H]3NC(=O)C2CCCCC2)nn1` [CBK289496] is lower in “% of control remaining” value: 119.524% for the first, 114.762% for the second.

Compared with `Cc1ccn(CCNC(=O)c2cccc(N3CCCC3=O)c2)n1` [CBK282642], `COC(=O)c1ccc2c(=O)n(CCN3CCOCC3)c(=S)[nH]c2c1` [CBK268553] is lower in “% of control remaining” value: 105.852% for the first, 89.0579% for the second.

Going from `CCn1ncnc1CN1CCN(Cc2ccccc2CO)CC1` [CBK306717] to `N=c1n(CCN2CCCC2)c2ccccc2n1CC(O)c1ccc(Cl)c(Cl)c1` (stereo not shown) [CBK263448C], the “% of control remaining” value falls from 125.681% to 119.407%.

Compared with `COc1ccc(-c2cc(C(=O)NCC(O)c3ccc4ccccc4c3)cnc2-c2ccccc2)cn1` (stereo not shown) [CBK037562], `CC(=O)c1ccc(-c2cc(C(=O)NC3CCc4ccccc43)cnc2-c2ccc(Cl)cc2)s1` (stereo not shown) [CBK036762] is higher in “% of control remaining” value: 88.75% for the first, 119.998% for the second.

Going from `Cc1ccc(C(C)(C)CC(C)NCc2cccc(C(F)(F)F)c2)o1` (stereo not shown) [CBK262872] to `CCCCN(C(=O)C(F)(F)c1ccccc1)c1c(N)n(CCC)c(=O)[nH]c1=O` [CBK297769], the “% of control remaining” value rises from 113.886% to 164.747%.

First: CC(C)c1nc(-c2cc3ccccc3[nH]c2=O)no1 [CBK287964]
Second: CC1(C)Sc2nc3ccccc3n2C1=O [CBK022971]
The “% of control remaining” value of the first is lower: 104.283% for the first, 127.096% for the second.

First: COC(=O)/N=C1/Nc2ccccc2CN1CC(N)=O [CBK007160]
Second: COc1ccccc1CNc1ccc(C(=O)O)cc1 [CBK078187]
The “% of control remaining” value of the first is higher: 108.731% for the first, 89.2681% for the second.

Compared with `N=c1n(-c2ccccc2)c(O)c(C(c2ccncc2)c2c(O)n(-c3ccccc3)c(=N)n(-c3ccccc3)c2=O)c(=O)n1-c1ccccc1` (stereo not shown) [CBK261438], `O=C(c1ccc(F)cc1)c1ccc(CSc2nnc3sc4ccccc4n23)cc1` [CBK265553] is higher in “% of control remaining” value: 100% for the first, 135.62% for the second.

Going from `CC(Cc1cnccn1)NC(=O)Nc1cc(N2CCOCC2)ccc1Cl` (stereo not shown) [CBK306954] to `CC(C)Nc1nccnc1SCc1ccc(Cl)c(Cl)c1` [CBK103657], the “% of control remaining” value falls from 112.541% to 102.106%.

Going from `CCCS(=O)(=O)n1c(=O)n(CCc2c[nH]c3ccccc23)c2ccccc21` [CBK106515] to `O=C(c1ccccc1)c1ccc(S(=O)(=O)N2CCCN(Cc3cc(F)c(F)c(F)c3)CC2)cc1` [CBK062777], the “% of control remaining” value falls from 160.182% to 107.476%.

Compared with `CC(=O)Nc1ccc(-c2ccc(COC3CCN(C(=O)c4ccc(Cl)c(Cl)c4)CC3)cc2)cc1` [CBK149215], `CC(Oc1ccc(Cl)cc1Cl)C(=O)Nc1ccc(O)cc1` (stereo not shown) [CBK264120] is higher in “% of control remaining” value: 96.0396% for the first, 134.117% for the second.

Going from `COc1ccc(C(=O)NC(=S)Nc2ccc(N3CCN(C)CC3)cc2)cc1[N+](=O)[O-]` [CBK266098C] to `COc1ccc([C@@]23CC[C@@H](NC(=O)Nc4ccc(F)c(F)c4)C[C@@H]2N(C)CC3)c(F)c1OC` [CBK067405], the “% of control remaining” value falls from 100% to 52.3817%.

Compared with `Cc1nc(Cl)c(C(=O)NCCc2ccc(S(=O)(=O)NC(=O)NC3CCCCC3)cc2)nc1C` [CBK011777], `O=C1CN(Cc2ccccc2)C(=O)N1CC1CCCCC1` [CBK162367] is higher in “% of control remaining” value: 110.61% for the first, 122.937% for the second.

First: CC1(C)CC(=O)C2=C(C1)NC(Nc1nc3ccccc3o1)=NC2c1ccccn1 (stereo not shown) [CBK269978]
Second: Cc1nn(-c2ccccc2)c(Cl)c1C1NC(=O)c2c(sc(C)c2C)N1 (stereo not shown) [CBK288086]
The “% of control remaining” value of the first is higher: 138.553% for the first, 73.0936% for the second.

Compared with `CONc1nc(/N=C/N(C)C)nc2c1ncn2C1CC(O)C(CO)O1` (stereo not shown) [CBK201335], `Nc1ncnc2c1nc(OCc1ccccc1)n2C1CC(O)C(CO)O1` (stereo not shown) [CBK201164] is lower in “% of control remaining” value: 183.841% for the first, 99.5805% for the second.

First: Cn1ccnc1C1(O)CCN(C(=O)C2(c3ccccc3)CC2)CC1 [CBK283538]
Second: Cc1csc2c(C3CCN(C(=O)c4ccccn4)CC3)nc(C)n12 [CBK285244]
The “% of control remaining” value of the first is lower: 114.603% for the first, 129.158% for the second.

Going from `Cc1cc(C)nc(N/C(=N\C(=O)c2ccccc2)N2CCC(C(N)=O)CC2)n1` [CBK263910] to `CC(C)c1csc(NC(=O)CC2CCN(S(=O)(=O)c3cccc(F)c3)CC2)n1` [CBK285902], the “% of control remaining” value rises from 87.5072% to 130.079%.

Compared with `CSc1nnc(SCC(=O)N2CCC(C(F)(F)F)CC2)s1` [CBK057829], `CC1CCCN(CC(C)(C)NC(=O)c2cc(C3CC3)on2)C1` (stereo not shown) [CBK281677] is higher in “% of control remaining” value: 122.521% for the first, 141.744% for the second.

Compared with `Cc1csc(C(Cc2ccsc2)NC(=O)c2scnc2C)n1` (stereo not shown) [CBK285098], `CC(C)CC(=O)N[C@@H](C)Cn1nc(-c2cccs2)oc1=O` [CBK284336] is lower in “% of control remaining” value: 123.136% for the first, 97.0118% for the second.

Going from `Cc1cc(=O)[nH]c(N/N=C/c2ccc(Cl)cc2Cl)n1` [CBK024387] to `Cc1ccc(C(=O)N2CCN(C(=O)CN3CCN(C)CC3)C2)cc1` [CBK024841C], the “% of control remaining” value rises from 113.802% to 122.462%.

First: CCOC(=O)c1c(NC(=O)/C=C/C(=O)O)sc2c1CCCCC2 [CBK265299]
Second: Cc1nnc(C(C)N2CCN(Cc3noc(C(C)(C)C)n3)CC2)o1 (stereo not shown) [CBK305171]
The “% of control remaining” value of the first is higher: 100% for the first, 92.9128% for the second.

`O=C(O)C1CSC(c2ccccc2)N1` (stereo not shown) [CBK261008] was tested, and the “% of control remaining” value was 99.1494%.

Reference: publication PMC12040169 (PLOS Biology, 2025)
